From PMC7819943, “Rice protein-binding microarrays: a tool to detect cis-acting elements near promoter regions in rice”
The list shows a part of the results.

What follows are sequences tested against T1, OsSMF1 (Oryza sativa, UniProt Q6ZLB0 1-436) (assay: protein-binding microarray (RPBM); PBS, 2% BSA, 51.3 ng/ul salmon testes DNA, 50 uM zinc acetate, 200 nM TF, 25 C, 1 h; high values mean tight binding). Settings: protein: recombinant; tags: N-terminal polyhistidine and DsRed monomer fusion (pET32a); chain copies: 2; label: CyDye5-dUTP incorporated in the synthesized complementary strand; 3' TTTTT single-stranded linker to array surface; dsDNA, one strand shown.
T1 sequence: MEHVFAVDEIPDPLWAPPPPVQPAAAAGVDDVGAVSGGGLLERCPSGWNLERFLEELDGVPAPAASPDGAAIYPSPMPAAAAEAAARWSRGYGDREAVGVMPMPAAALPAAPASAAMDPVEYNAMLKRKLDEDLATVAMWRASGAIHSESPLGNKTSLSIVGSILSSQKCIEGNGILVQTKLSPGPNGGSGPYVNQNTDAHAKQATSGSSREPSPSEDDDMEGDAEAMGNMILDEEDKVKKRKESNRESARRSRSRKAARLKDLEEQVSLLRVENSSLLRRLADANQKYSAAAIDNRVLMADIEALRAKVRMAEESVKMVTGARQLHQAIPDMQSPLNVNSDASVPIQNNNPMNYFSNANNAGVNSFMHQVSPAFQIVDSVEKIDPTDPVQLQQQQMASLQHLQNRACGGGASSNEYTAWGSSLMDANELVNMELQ
Method in brief: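 Ni–NTA purification followed expression in E. coli BL21-CodonPlus of transcription factors fused N-terminally to a polyhistidine tag and DsRed. At 200 nM in PBS with 2% BSA, salmon testes DNA and 50 µM zinc acetate, the protein was incubated for 1 h at 25 °C with a custom Agilent array that had been primer-extended with Cy5-dUTP and blocked with 2% BSA. After washing, the array was read on an Axon 4000B scanner. The binding signal is per-feature fluorescence intensity in arbitrary units.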
For “TCATGATCTTTTGAATAAGATGAATGGTCAAATGTTACAACGGAGTCACCTAGTGCAG”, the binding signal was 4260 fluorescence intensity (a.u.). “ATTAATTTGACCAACTTCATTCAACATGTAACATGGTCTCCGGAGTCACCTAGTGCAG” was tested, and the binding signal was 4020 fluorescence intensity (a.u.). “TTAGTGTGGTAATATTTGGTCATCAACCAAATAGCCTCAACGGAGTCACCTAGTGCAG” was tested, and the binding signal was 3510 fluorescence intensity (a.u.). In the case of “AATATTGAGGATCGATGTACGCACATTATTCGTGTAGATACGGAGTCACCTAGTGCAG”, the binding signal is reported as 3210 fluorescence intensity (a.u.). For “ATGCTTGTGACAATAGATGTACAAACGTCACATACTAAATCGGAGTCACCTAGTGCAG”, the binding signal was 3190 fluorescence intensity (a.u.). “CGCTGTCCCCGCCCACGCGGCGACGCCACGTGTCCCCACCCGGAGTCACCTAGTGCAG” was tested, and the binding signal was 26700 fluorescence intensity (a.u.). For “TAGTAAATGATATCAATTTAGGTGGTGTTCTTTTCTTCTGCGGAGTCACCTAGTGCAG”, the binding signal was 3190 fluorescence intensity (a.u.). “CTAGTTCTTGCTCTTTTCTCGACGTCATCCGATGGCCATGCGGAGTCACCTAGTGCAG” was tested, and the binding signal was 6070 fluorescence intensity (a.u.). With “GGTGTCGCGTCGCGTCTGCAGTAGAAATGGAAGCCTGGGGCGGAGTCACCTAGTGCAG” the binding signal was 3230 fluorescence intensity (a.u.). With “ATACCCGGTCCCACCTCTCATACACACGTAACGTCTTGGACGGAGTCACCTAGTGCAG” the binding signal was 5150 fluorescence intensity (a.u.). In the case of “CGGAGACCACCAACCGATGATGTCGTCTCCTTTGCCAACACGGAGTCACCTAGTGCAG”, the binding signal is reported as 3220 fluorescence intensity (a.u.). For “CCAACCTCAAAACCCTAACCCGGTGGACCACCGCTATTACCGGAGTCACCTAGTGCAG”, the binding signal was 4080 fluorescence intensity (a.u.). In the case of “ATAATAATAATAAACCAGCTGCCTTTGTGACAACAGCCCACGGAGTCACCTAGTGCAG”, the binding signal is reported as 18800 fluorescence intensity (a.u.). In the case of “GCGCAGTTCGTGAAGAGCGTGGCGTGCGGTGCGCGCGTCACGGAGTCACCTAGTGCAG”, the binding signal is reported as 4810 fluorescence intensity (a.u.). For “AGGTTCAACTGTTTAAGTTACGGAACACGTCATCTTTGTCCGGAGTCACCTAGTGCAG”, the binding signal was 20700 fluorescence intensity (a.u.). In the case of “TGAAAATGAAAATATCAAAGTGACGTCAGCGCAATCGCGCCGGAGTCACCTAGTGCAG”, the binding signal is reported as 10400 fluorescence intensity (a.u.). With “CGTCGCCGTCAGCCGCCCGCCGCACTCGTTTCCAGCGATCCGGAGTCACCTAGTGCAG” the binding signal was 3460 fluorescence intensity (a.u.). For “ACTGCTCCATTAGCCAGCAGCCGGTGGCGCACAAACGCCACGGAGTCACCTAGTGCAG”, the binding signal was 3300 fluorescence intensity (a.u.). In the case of “ATTAAGAAGCATCATATCCATATCACTATATCGCCACTGACGGAGTCACCTAGTGCAG”, the binding signal is reported as 4220 fluorescence intensity (a.u.). In the case of “AGCTTCAGGAGTTCTTGTCACGTCTCGAGGAAGAGAGGCTCGGAGTCACCTAGTGCAG”, the binding signal is reported as 3740 fluorescence intensity (a.u.). “GAGCGAGTCGACCTGAGGCTTCGTCAGGCAGTGTGTTGCTCGGAGTCACCTAGTGCAG” was tested, and the binding signal was 3160 fluorescence intensity (a.u.). For “AGTGTGTAAGACTGACGTGATAACCACTACACCACAGCAACGGAGTCACCTAGTGCAG”, the binding signal was 3440 fluorescence intensity (a.u.). For “GCACTTGCATATTTGCTGTGTGGCTTGTTGAGTATGTCATCGGAGTCACCTAGTGCAG”, the binding signal was 3760 fluorescence intensity (a.u.). For “TCCAGTTTCGCGTAGCTGCGTGACAGTTCAATTGAACTCTCGGAGTCACCTAGTGCAG”, the binding signal was 3200 fluorescence intensity (a.u.). “AAGTGGACCGACGCCGACGTCGACGAGTTCATCGCCTCCGCGGAGTCACCTAGTGCAG” was tested, and the binding signal was 3720 fluorescence intensity (a.u.). “TATGATGTTTGTAAGACGTGGATCTGAATGTCAACATTGTCGGAGTCACCTAGTGCAG” was tested, and the binding signal was 3220 fluorescence intensity (a.u.). “ATGTGCACGTCAACCAGTAAGACACACTCTTTAGAATTGGCGGAGTCACCTAGTGCAG” was tested, and the binding signal was 4200 fluorescence intensity (a.u.). For “AGCAAACATAATTAACATATATATAATAAAGCTCAAAGAGCGGAGTCACCTAGTGCAG”, the binding signal was 3780 fluorescence intensity (a.u.). In the case of “CCGCGGTGACACAGCATTTAGCGTCAGTTGACGTGGTGCGCGGAGTCACCTAGTGCAG”, the binding signal is reported as 8650 fluorescence intensity (a.u.). With “GTTAAACACGTACTAAGTGTCAAACATTTTGAAATGGAGGCGGAGTCACCTAGTGCAG” the binding signal was 21300 fluorescence intensity (a.u.). With “CGTCCATTGCCTGCAGAAACGGACGGCGCGGGTGGGTGGGCGGAGTCACCTAGTGCAG” the binding signal was 3680 fluorescence intensity (a.u.). “CCACCGTCGACGCCACCTCCGCCGGCCCCGCCACGCGGCGCGGAGTCACCTAGTGCAG” was tested, and the binding signal was 6760 fluorescence intensity (a.u.). With “ACTCTGAACCATGTGATGATGTAACGTGGCGACGATCGAGCGGAGTCACCTAGTGCAG” the binding signal was 3210 fluorescence intensity (a.u.). For “TCCGCACTCACAAGCTGTACGATCCGTTCCGTTCGTCCTTCGGAGTCACCTAGTGCAG”, the binding signal was 3450 fluorescence intensity (a.u.). With “GTGTGTGCGTTTGTGTGTGTATATAGTAGTTAGGCCAATTCGGAGTCACCTAGTGCAG” the binding signal was 3980 fluorescence intensity (a.u.). In the case of “TCTTCCTGATCTCACCACTTTGTGACTCGTCACCGTCTCGCGGAGTCACCTAGTGCAG”, the binding signal is reported as 5150 fluorescence intensity (a.u.). “GAGGAAATTATTATACTTATCATCTCATATAATTTAGACCCGGAGTCACCTAGTGCAG” was tested, and the binding signal was 22100 fluorescence intensity (a.u.). For “CACTCGCTCATCATGTTTGCGTCGGAGCCGACGTGGCGACCGGAGTCACCTAGTGCAG”, the binding signal was 17200 fluorescence intensity (a.u.). With “GTACTCGTACTCCTAAATTTGTGTTGGTTTGTTGGACTATCGGAGTCACCTAGTGCAG” the binding signal was 27900 fluorescence intensity (a.u.). “GCTATCTTTTCTCTTGGTCATCATGCTTCCTCCATGGATTCGGAGTCACCTAGTGCAG” was tested, and the binding signal was 3450 fluorescence intensity (a.u.). In the case of “TAATTTGACACTACCAATGATTTGGTAGGGCACCAAACCACGGAGTCACCTAGTGCAG”, the binding signal is reported as 3410 fluorescence intensity (a.u.). For “GTGAGACTGGCGAGGCCCTTCTTGCGTGGCGCTGCAAGCTCGGAGTCACCTAGTGCAG”, the binding signal was 7600 fluorescence intensity (a.u.).
